# Data as given in PMC2840025.
# Results are given in words; binding and its absence hold for the method and conditions named. In cells and extracts the contact can be indirect. Binding can be weak; no strength is given. For some of these results: Where a sequence is shown, tags or fusion partners need not be part of it.
# T1: EGFP fusion of AGS3 (Activator of G protein Signaling 3) (UniProt Q9R080)
# T1 sequence: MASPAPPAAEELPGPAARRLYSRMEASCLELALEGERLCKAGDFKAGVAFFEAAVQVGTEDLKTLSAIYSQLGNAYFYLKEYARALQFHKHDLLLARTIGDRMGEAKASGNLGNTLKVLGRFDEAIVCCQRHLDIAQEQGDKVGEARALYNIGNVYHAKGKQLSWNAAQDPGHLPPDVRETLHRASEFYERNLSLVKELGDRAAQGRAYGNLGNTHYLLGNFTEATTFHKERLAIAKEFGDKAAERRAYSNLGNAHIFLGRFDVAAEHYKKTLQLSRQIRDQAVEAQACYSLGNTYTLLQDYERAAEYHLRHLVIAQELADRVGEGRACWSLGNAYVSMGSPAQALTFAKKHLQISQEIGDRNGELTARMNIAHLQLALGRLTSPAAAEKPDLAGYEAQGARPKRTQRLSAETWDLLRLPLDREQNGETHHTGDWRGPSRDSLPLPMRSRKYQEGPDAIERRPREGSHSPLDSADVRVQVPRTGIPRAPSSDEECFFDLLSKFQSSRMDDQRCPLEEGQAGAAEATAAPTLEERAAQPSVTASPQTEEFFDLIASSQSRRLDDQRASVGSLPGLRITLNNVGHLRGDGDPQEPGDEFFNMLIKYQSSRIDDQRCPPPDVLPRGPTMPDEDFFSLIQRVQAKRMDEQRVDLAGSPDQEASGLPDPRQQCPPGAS
# T2: AGS3 (endogenous, rat) (rat (endogenous in rat PFC and PC12)) (UniProt Q9R080)
# T2 sequence: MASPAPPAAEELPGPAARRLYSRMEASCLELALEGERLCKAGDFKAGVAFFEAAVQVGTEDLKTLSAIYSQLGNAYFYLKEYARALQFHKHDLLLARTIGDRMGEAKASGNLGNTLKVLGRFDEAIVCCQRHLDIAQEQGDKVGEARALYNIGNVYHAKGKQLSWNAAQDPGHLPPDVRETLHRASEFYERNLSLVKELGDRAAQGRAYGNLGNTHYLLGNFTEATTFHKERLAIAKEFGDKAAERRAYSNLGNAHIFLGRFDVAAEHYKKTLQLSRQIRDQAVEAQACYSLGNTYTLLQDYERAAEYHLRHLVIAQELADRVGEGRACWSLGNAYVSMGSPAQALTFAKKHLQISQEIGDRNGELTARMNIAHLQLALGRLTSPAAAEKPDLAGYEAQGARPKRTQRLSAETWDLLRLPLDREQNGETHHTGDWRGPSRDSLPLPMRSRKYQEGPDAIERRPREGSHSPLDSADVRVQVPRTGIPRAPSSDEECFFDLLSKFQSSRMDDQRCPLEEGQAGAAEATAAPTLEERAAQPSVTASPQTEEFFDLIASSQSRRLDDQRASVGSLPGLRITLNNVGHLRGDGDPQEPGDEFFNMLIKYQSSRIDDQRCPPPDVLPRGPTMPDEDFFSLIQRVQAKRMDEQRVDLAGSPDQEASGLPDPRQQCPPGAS
# Columns and labels:
# [1] = biological target: T1, EGFP fusion of AGS3 (Activator of G protein Signaling 3); assay: co-IP; anti-GFP antibody covalently linked to magnetic microbeads, Flp-In CV-1 stable cells; stringent wash (650 mM NaCl, 1% Igepal CA-630, 0.5% sodium deoxycholate, 0.1% SDS, 50 mM Tris-HCl pH 8.0); western blot for Gαi3
# [2] = biological target: T2, AGS3 (endogenous, rat) (rat (endogenous in rat PFC and PC12)); assay: co-IP; endogenous proteins, rat brain PFC lysate in homogenization buffer (20 mM Hepes pH 7.6, 125 mM NaCl, 10% glycerol, 1 mM EDTA, 1 mM EGTA); anti-AGS3 or anti-USP9x antibody 10 µg/ml, protein G-Sepharose, 4°C; western blot
# [3] = biological target: T2, AGS3 (endogenous, rat) (rat (endogenous in rat PFC and PC12)); assay: co-IP; endogenous proteins, PC12, COS7 and HeLa cells; data not depicted
# [4] = biological target: USP9x (endogenous, rat) (rat (endogenous in rat PFC and PC12)); assay: co-IP; endogenous proteins, rat brain PFC lysate in homogenization buffer (20 mM Hepes pH 7.6, 125 mM NaCl, 10% glycerol, 1 mM EDTA, 1 mM EGTA); anti-AGS3 or anti-USP9x antibody 10 µg/ml, protein G-Sepharose, 4°C; western blot
molecule,measurement,setting,value
"Gαi3 (endogenous, Flp-In CV-1 cells)",binding,[1],binds
"USP9x (endogenous, rat) (enzyme)",binding,[2],binds
same,binding,[3],binds
"AGS3 (endogenous, rat) (protein, UniProt Q9R080 1-673) MASPAPPAAEELPGPAARRLYSRMEASCLELALEGERLCKAGDFKAGVAFFEAAVQVGTEDLKTLSAIYSQLGNAYFYLKEYARALQFHKHDLLLARTIGDRMGEAKASGNLGNTLKVLGRFDEAIVCCQRHLDIAQEQGDKVGEARALYNIGNVYHAKGKQLSWNAAQDPGHLPPDVRETLHRASEFYERNLSLVKELGDRAAQGRAYGNLGNTHYLLGNFTEATTFHKERLAIAKEFGDKAAERRAYSNLGNAHIFLGRFDVAAEHYKKTLQLSRQIRDQAVEAQACYSLGNTYTLLQDYERAAEYHLRHLVIAQELADRVGEGRACWSLGNAYVSMGSPAQALTFAKKHLQISQEIGDRNGELTARMNIAHLQLALGRLTSPAAAEKPDLAGYEAQGARPKRTQRLSAETWDLLRLPLDREQNGETHHTGDWRGPSRDSLPLPMRSRKYQEGPDAIERRPREGSHSPLDSADVRVQVPRTGIPRAPSSDEECFFDLLSKFQSSRMDDQRCPLEEGQAGAAEATAAPTLEERAAQPSVTASPQTEEFFDLIASSQSRRLDDQRASVGSLPGLRITLNNVGHLRGDGDPQEPGDEFFNMLIKYQSSRIDDQRCPPPDVLPRGPTMPDEDFFSLIQRVQAKRMDEQRVDLAGSPDQEASGLPDPRQQCPPGAS",binding,[4],binds
